{
  "source": "patent US8263344B2",
  "about": "“Compounds regulating calreticulin, KDEL receptor and/or Erp-57 cell surface exposure and uses thereof to evaluate the efficiency of a cancer treatment” (Institut Gustave Roussy, priority 2006, dated 2012)",
  "test_system": "CT26 tumour cells",
  "assay": "Anti-tumour vaccination with treated (dying) CT26 cells and challenge with live tumour cells",
  "format": "in vivo, BALB/c mice",
  "conditions": "dying CT26 cells injected into one flank, rechallenge with live tumour cells in opposite flank 8 days later",
  "note": "At least one structure is not confirmed: it was looked up by name or label, or the drawing left a doubt.",
  "data": [
    {"smiles": "C=C(C)[C@@H]1CC[C@]2(C(=O)O)CC[C@]3(C)[C@H](CC[C@@H]4[C@@]5(C)CC[C@H](O)C(C)(C)[C@@H]5CC[C@]43C)[C@@H]12", "note": "[betulinic acid]", "values": [
      {"measurement": "immunogenic apoptosis / immunogenic cell death (protection against tumour growth)", "value": "failed to induce immunogenic apoptosis"}
    ]}
  ]
}
